Experimental data from publication PMC7755398.
No constants are given. Whether binding was seen depends on the method and setting. A result given as binding can be weak or reduced; the word gives no strength. Sequences can lack the tags named with a protein.

Target: T1, PAR-6 PDZ domain fused to the Gal4 DNA binding domain (C. elegans) (UniProt Q9NAN2)
T1 sequence: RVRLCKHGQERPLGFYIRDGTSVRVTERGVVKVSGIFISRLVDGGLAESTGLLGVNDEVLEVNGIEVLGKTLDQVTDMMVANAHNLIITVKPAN
Assay: two-hybrid; Gal4 system in diploid S. cerevisiae (Y8930 x Y8800); DB::PAR-6 PDZ as bait, AD::NOCA-1d as prey; growth on -Leu -Trp -His + 2 mM 3-AT and on -Leu -Trp -Ade plates; cycloheximide plate as test for self-activation

## full-length NOCA-1d fused to the Gal4 activation domain (from UniProt G5EEK3-4)
  binding: binds
